From ChEMBL document CHEMBL3988442, “University of Dundee, Small-Polar-MMV Screening Library” (2021).

Mtb glucose medium: 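Growth of Mycobacterium tuberculosis over 3 days (7H9 medium with glucose and tyloxapol); the read-out is not stated. Tested at 50 µM. The record gives no direction; compounds that gave an IC50 in retests scored well above the rest, so higher reads as more growth inhibition. Of about 69,000 compounds tested this way, about 760 (1.1%) reached 50% or more in at least one test.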
Mtb cholesterol medium: 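Whole-cell growth test on Mycobacterium tuberculosis, read after 4 days in a medium based on cholesterol and the lipid DPPC; the read-out is not stated. Tested at 50 µM. Direction is inferred from retests: higher values go with more growth inhibition. About 69,000 compounds were tested under these conditions; 0.54% (about 370) showed 50% or more at least once.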

The filed quantity is “Percent Effect” (%). The controls that fix the scale are not given in the record; negative values are as filed. The compounds are a random part of those screened. Two or more numbers in one place are separate tests of the same structure; such repeats can differ widely.

O=C(NCCCn1nc2ccccn2c1=O)NC(C1CC1)C1CC1 gave Mtb glucose medium: 9.028%; Mtb cholesterol medium: 26.45%. Cc1ccccc1CN(CCN(C)C)Cc1ccc(S(C)(=O)=O)cc1 gave Mtb glucose medium: 25.81%; Mtb cholesterol medium: -3.135%. COC(C)(C)C(=O)N[C@H]1CN(c2nccnc2N(C)C)C[C@@H]1C(C)C gave Mtb glucose medium: 6.137% & 17.52%; Mtb cholesterol medium: 1.046%. Result for CC1CCCCN1C(=O)COCc1nc(-c2ccncc2)no1 (centres undefined) was Mtb glucose medium: 124.3%; Mtb cholesterol medium: -0.9595%. c1csc(CN2CCCN(c3ncnc4[nH]ccc34)CC2)c1 read Mtb glucose medium: -7.361%; Mtb cholesterol medium: -5.325%.

Cc1ccc(O)c(CNc2cccc(CN3CCN(C)CC3)c2)n1 read Mtb glucose medium: -33.26%; Mtb cholesterol medium: 1.891%. Result for Cc1nn(C)c(C)c1C1CCCN1Cc1cccc(C(=O)N(C)C)c1 (centres undefined) was Mtb glucose medium: -5.039%; Mtb cholesterol medium: 4.483%. Cc1cc(C)cc(N2CCN(C(=O)C3CN(C)C(=O)N3)CC2=O)c1 (centres undefined) gave Mtb glucose medium: 4.811%; Mtb cholesterol medium: -7.004%. CC(C)(C)OC(=O)NCCNC(=O)c1cnc(-c2ccccc2)nc1 gave Mtb glucose medium: 3.264% & -1.494%; Mtb cholesterol medium: -12.42%. CCOC(=O)C1CCN(C(=O)CN2CCCC2c2cc(C)no2)CC1 (centres undefined) read Mtb glucose medium: -0.8507% & 13.94%; Mtb cholesterol medium: 8.902%.

With COCC1CC2(CCN(c3ccccn3)CC2)CN1C(C)C.O=C(O)C(F)(F)F.O=C(O)C(F)(F)F (centres undefined) the screen gave Mtb glucose medium: 0.3168%; Mtb cholesterol medium: -0.331%. For CCN(C)c1ncnc2c1CCN(Cc1ccc(OC)cc1)CC2.O=C(O)C(F)(F)F.O=C(O)C(F)(F)F the result was Mtb glucose medium: -29.51%; Mtb cholesterol medium: -17.84%. COCc1nc(C(=O)N2CCCC2c2cccs2)cs1 (centres undefined) read Mtb glucose medium: 4.438%; Mtb cholesterol medium: -24%. For O=C(O)C(F)(F)F.O=C(O)C(F)(F)F.[H][C@@]12COC[C@]1(COC)CN(Cc1ccc3ccccc3n1)C2 the result was Mtb glucose medium: 0.9066%; Mtb cholesterol medium: -24.79%. With O=C(O)C(F)(F)F.[H][C@]12CCCN(Cc3ccc(OC)cc3)[C@@]1([H])CN(C(=O)c1ccco1)C2 the screen gave Mtb glucose medium: -3.303%; Mtb cholesterol medium: -25.54%.

For [H][C@@]12CS(=O)(=O)C[C@]1([H])N(C(=O)c1cn3ccsc3n1)CCN2C the result was Mtb glucose medium: 7.344% & 0.1859%; Mtb cholesterol medium: 14.23%. CCc1ccc2nc(C)cc(C(=O)N[C@@H]3CCCNC3)c2c1 gave Mtb glucose medium: -0.2268% & 14.1%; Mtb cholesterol medium: 19.68%. With O=C(O)C(F)(F)F.O=C(O)C(F)(F)F.c1nc2n(c1CN1CCCCC1)CCN(C1CCOC1)CC2 (centres undefined) the screen gave Mtb glucose medium: 28.9% & 5.22%; Mtb cholesterol medium: 1.687%. CCN(Cc1noc(CC(C)C)n1)Cc1cccc(F)c1O read Mtb glucose medium: -27.97%; Mtb cholesterol medium: -3.519%. For Cc1cc(=O)n(C)cc1NC(=O)Cc1cc(F)ccc1F the result was Mtb glucose medium: 8.861%; Mtb cholesterol medium: 8.681%.

Cc1nc[nH]c1C(=O)N1CCCC2(CN(C)C(=O)O2)C1 (centres undefined) read Mtb glucose medium: 32.14%; Mtb cholesterol medium: 4.702%. CCOC(=O)N1CCC(Oc2ccc(C(F)(F)F)cn2)CC1 gave Mtb glucose medium: 34.55%; Mtb cholesterol medium: 35.52%. CS(=O)(=O)N1Cc2nccn2CC(CNC(=O)c2cccnc2)C1.O=C(O)C(F)(F)F (centres undefined) gave Mtb glucose medium: 15.36% & 1.074%; Mtb cholesterol medium: -10.81%. Cc1cccc(NS(=O)(=O)c2ccc(C#N)nc2)c1C#N gave Mtb glucose medium: 14.1%; Mtb cholesterol medium: -8.83%. For CCN(CC)CC1CN(Cc2ccco2)Cc2nccn2C1 (centres undefined) the result was Mtb glucose medium: 2.453%; Mtb cholesterol medium: 13.42%.

[H][C@@]12CS(=O)(=O)C[C@]1([H])N(C(=O)c1cc(C(C)C)no1)CCN2C(C)=O read Mtb glucose medium: -14.92%; Mtb cholesterol medium: 7.489%. With O=C(O)C(F)(F)F.O=C(O)C(F)(F)F.[H][C@@]12COC[C@]1([H])[C@@H](OCc1csc(C)n1)CN2CCOC the screen gave Mtb glucose medium: -23.45%; Mtb cholesterol medium: 20.5%. With COCCCNC(=O)c1nnsc1-c1ccccc1 the screen gave Mtb glucose medium: -20.83%; Mtb cholesterol medium: -9.429%.

Once more, the final 4:

- CCN(CC)CC1CN(Cc2ccco2)Cc2nccn2C1 (centres undefined) | Mtb glucose medium: 2.453%; Mtb cholesterol medium: 13.42%
- [H][C@@]12CS(=O)(=O)C[C@]1([H])N(C(=O)c1cc(C(C)C)no1)CCN2C(C)=O | Mtb glucose medium: -14.92%; Mtb cholesterol medium: 7.489%
- O=C(O)C(F)(F)F.O=C(O)C(F)(F)F.[H][C@@]12COC[C@]1([H])[C@@H](OCc1csc(C)n1)CN2CCOC | Mtb glucose medium: -23.45%; Mtb cholesterol medium: 20.5%
- COCCCNC(=O)c1nnsc1-c1ccccc1 | Mtb glucose medium: -20.83%; Mtb cholesterol medium: -9.429%